From the supplement of paper PMC12823440, “Inhibitors supercharge kinase turnover through native proteolytic circuits” (Nature, 2025)
Structures can show the parent of a compound that is named as a salt. The list shows a part of the results. Hit calls seldom repeat between salt and free forms of one compound.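 In K562 cells expressing nanoluciferase-fused kinases, luminescence was recorded at 4 h intervals between 2 and 18 h, normalized as percent of control with DMSO at 100% and a positive control at 0%. A significant (2 sigma) signal drop marks a time point as decreased. The authors' rule for a hit is not shown and takes in more than the number of time points.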

What follows are compounds tested against HER2 (UniProt P04626) (assay: kinase-Nluc reporter destabilization hit call (1 = scored as downregulated) (binary); higher = compound decreases kinase abundance). Settings: K562; 2-18 h.

How did the “kinase-Nluc reporter destabilization hit call” value turn out when `CC1=C[C@]23C(=O)[C@@H](C=C(CO)[C@@H](O)[C@]2(O)[C@H]1O)[C@H]1[C@@H](C[C@H]3C)C1(C)C` [Ingenol] (10 µM) was run?
Its value is inactive: 0.

For `C=C[C@H]1CN2CC[C@]3(C(=O)Nc4ccccc43)[C@@H]2C[C@@H]1/C(=C\OC)C(=O)OC` [Corynoxeine] (2 µM), which “kinase-Nluc reporter destabilization hit call” value is on record?
Its value is inactive: 0.

`O=C(O)c1sc2cc(Cl)ccc2c1Cl` (10 µM) was tested. Which “kinase-Nluc reporter destabilization hit call” value did it give?
Its value is inactive: 0.

How did the “kinase-Nluc reporter destabilization hit call” value turn out when `C[C@H]1CC[C@]2(NC1)O[C@H]1C[C@H]3[C@@H]4CC[C@H]5C[C@@H](O)CC[C@]5(C)[C@H]4CC[C@]3(C)[C@H]1[C@@H]2C` [Tomatidine (hydrochloride)] (10 µM) was run?
Its value is inactive: 0.

With `O=C1C=CC[C@@H]2[C@H]3CCCN4CCC[C@@H](CN12)[C@@H]34` [Sophocarpine (monohydrate)] (2.5 µM) as the compound, how does the “kinase-Nluc reporter destabilization hit call” value read?
The value was inactive: 0.

`Cc1n[nH]cc1-c1cc2nc([C@@H]3CC4CCN3CC4)[nH]c(=O)c2s1` [Simurosertib] (2.5 µM) was tested. Which “kinase-Nluc reporter destabilization hit call” value did it give?
Its value is inactive: 0.

Which “kinase-Nluc reporter destabilization hit call” value does the source give for `O=C(N[C@@H](COc1ccc2[nH]c(=O)[nH]c2c1)c1ccccc1)c1cccn(Cc2ccc(F)c(F)c2)c1=O` (2.5 µM) here?
Its value is inactive: 0.

How did the “kinase-Nluc reporter destabilization hit call” value turn out when `O=C(/C=C/c1ccccc1)OC[C@H]1O[C@@H](O[C@@H]2OC=C[C@H]3[C@H](O)[C@@H]4O[C@]4(CO)[C@@H]23)[C@H](O)[C@@H](O)[C@@H]1O` [Picroside I] (10 µM) was run?
The value was inactive: 0.

Which “kinase-Nluc reporter destabilization hit call” value does the source give for `C[C@@H]1CC[C@H]2[C@@H](C)C(=O)O[C@@H]3O[C@@]4(C)CC[C@@H]1[C@]32OO4` [Artemisinin] (10 µM) here?
The value was inactive: 0.

For `N#CC(C#N)=Cc1ccc([N+](=O)[O-])c(O)c1` (10 µM), which “kinase-Nluc reporter destabilization hit call” value is on record?
Its value is inactive: 0.

For `C[C@H](CCC(=O)O)C[C@H](C)C[C@H](C)C(=O)/C=C(\O)[C@H](C)C[C@H](C)C/C=C/[C@@H](C)[C@@H](O)[C@@H](C)[C@@H](O)C[C@@H]1CC[C@@](C)([C@H]2CC[C@@](C)([C@@H](C)O)O2)O1` [Ionomycin (calcium)] (2.5 µM), which “kinase-Nluc reporter destabilization hit call” value is on record?
Its value is inactive: 0.

With `CC1C(=O)OC2C(O)C34C5OC(=O)C3(OC3OC(=O)C(O)C34C(C(C)(C)C)C5O)C12O` (centres undefined) [Ginkgolide C] (10 µM) as the compound, how does the “kinase-Nluc reporter destabilization hit call” value read?
The value was inactive: 0.

With `Cn1cc(C2=C(c3cn(C4CCN(Cc5ccccn5)CC4)c4ccccc34)C(=O)NC2=O)c2ccccc21` [Enzastaurin] (10 µM) as the compound, how does the “kinase-Nluc reporter destabilization hit call” value read?
Its value is inactive: 0.

How did the “kinase-Nluc reporter destabilization hit call” value turn out when `O=c1[nH]c2ccccc2n1C1CCN(Cc2ccc(-c3[nH]c4cc5ncnc5cc4nc3-c3ccccc3)cc2)CC1` [AKT inhibitor VIII] (2.5 µM) was run?
The value was inactive: 0.

With `CCN1CCN(C(=O)Cc2ccc(Nc3ncc(F)c(Nc4ccc(C(=O)Nc5ccccc5Cl)cc4)n3)cc2)CC1` (2.5 µM) as the compound, how does the “kinase-Nluc reporter destabilization hit call” value read?
The value was inactive: 0.

With `C=CC(=O)N[C@H]1C=C(C)c2c(-c3cnc4ccccc4c3)c3c(N)ncnc3n2C1` (10 µM) as the compound, how does the “kinase-Nluc reporter destabilization hit call” value read?
The value was inactive: 0.

Which “kinase-Nluc reporter destabilization hit call” value does the source give for `CC(C)(C)c1cc(C=C(C#N)C#N)cc(Br)c1O` (2.5 µM) here?
The value was inactive: 0.

For `CCCCNc1nc(N)c2[nH]c(=O)n(Cc3ccc(C)nc3)c2n1` (10 µM), which “kinase-Nluc reporter destabilization hit call” value is on record?
Its value is inactive: 0.

For `C=CC(=O)Nc1ccc2[nH]c(=O)n(C3CCN(Cc4ccc(-c5nc6cc[nH]c(=O)c6cc5-c5ccccc5)cc4)CC3)c2c1` [Borussertib] (10 µM), which “kinase-Nluc reporter destabilization hit call” value is on record?
The value was inactive: 0.

For `COc1ccc(N(C(=O)Oc2c(C)cccc2C)c2ccnc(Nc3ccc(N4CCN(C)CC4)cc3)n2)c(OC)c1` (2.5 µM), which “kinase-Nluc reporter destabilization hit call” value is on record?
The value was inactive: 0.

For `COc1ccc2c(c1)[nH]c1c(C)nccc12` [Harmine] (10 µM), which “kinase-Nluc reporter destabilization hit call” value is on record?
The value was inactive: 0.

Which “kinase-Nluc reporter destabilization hit call” value does the source give for `O=c1cc(O)c2ccccc2o1` [4-Hydroxycoumarin] (10 µM) here?
Its value is inactive: 0.

How did the “kinase-Nluc reporter destabilization hit call” value turn out when `CC(=O)c1c(O)c(C)c(O)c(Cc2c(O)c3c(c(C(=O)/C=C/c4ccccc4)c2O)OC(C)(C)C=C3)c1O` [Rottlerin] (2 µM) was run?
Its value is inactive: 0.

`N#CC(C#N)=Cc1ccc(O)c(O)c1` [Tyrphostin 23] (10 µM) was tested. Which “kinase-Nluc reporter destabilization hit call” value did it give?
Its value is inactive: 0.

`C/C(O)=C(\C#N)C(=O)Nc1cc(Br)ccc1Br` (10 µM) was tested. Which “kinase-Nluc reporter destabilization hit call” value did it give?
Its value is inactive: 0.

Which “kinase-Nluc reporter destabilization hit call” value does the source give for `Cc1ccccc1-n1c(Cn2ncc3c(N)ncnc32)nc2cccc(C)c2c1=O` (10 µM) here?
The value was inactive: 0.

With `COc1cc2c(cc1F)C(c1ccccc1Cl)=Nc1c(n[nH]c1C)N2` (0.5 µM) as the compound, how does the “kinase-Nluc reporter destabilization hit call” value read?
The value was inactive: 0.

How did the “kinase-Nluc reporter destabilization hit call” value turn out when `COc1ccc2c(c1)/C(=C/c1cnc[nH]1)C(=O)N2` (2.5 µM) was run?
The value was inactive: 0.

How did the “kinase-Nluc reporter destabilization hit call” value turn out when `O=[N+]([O-])/C=C/c1ccc2c(c1)OCO2` (2.5 µM) was run?
Its value is inactive: 0.
